Results published in PubChem BioAssay AID651640 (Broad Institute, 2012).
The campaign covered roughly 350,000 compounds. About 6,000 (1.7%) were called active. Inconclusive results, whose numbers are uncertain, are shown with a selection of clear calls. Cut-off read from the data, not from the text of the source: active = CPE inhibition above about 20% (passing the limit was not always enough); inconclusive = no clear call, values can overlap the other calls; tested in BHK-21 cells.

assay: protection of cells from dengue 2 killing – plate reader, single concentration, primary screen (AID 651640); settings: DENV2-infected cells, cytopathic effect rescue, at 9.99 µM, active compounds read high;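 note: 0% = median of neutral control wells and 100% = median of positive control wells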

SMILES	CPE inhibition
COc1ccc(NC(=O)C2CCN(S(=O)(=O)c3ccc4c(c3)CC(C)N4C(C)=O)CC2)cc1OC (stereo not drawn)	inconclusive: 42.9%
CC1(C(=O)NS(=O)(=O)Cc2ccccc2)CCN1C(=O)c1ccc(C2CCCCC2)cc1 (stereo not drawn)	inactive: -4.53%
CC(C)c1ccc(C2NC(=O)c3ccccc3O2)cc1 (stereo not drawn)	inconclusive: 23.1%
COc1ccc(C#Cc2ccc3c(c2)[C@H]2[C@H](CCN2C(=O)Nc2ccc(C(F)(F)F)cc2)[C@@H](CO)N3C)cc1	inconclusive: 33.4%
Cc1nc2ccc(NC(=O)N3CCOCC3)cc2nc1C	inconclusive: 37%
CCOC(=O)C(C)N1CC(=O)N(c2ccccc2)C1=O (stereo not drawn)	inconclusive: 28.7%
C[C@@H]1CCCCO[C@H](CN(C)C(=O)c2ccccc2)[C@@H](C)CN([C@H](C)CO)C(=O)c2cc(NC(=O)Nc3ccc(F)cc3)ccc2O1	active: 31.5%
CC(=C\c1ccco1)/C=C(\C#N)C(=O)NCCc1c[nH]c2ccccc12	active: 58.3%
C[C@H]1CN([C@@H](C)CO)C(=O)Cc2cc(NC(=O)C3CCCCC3)ccc2O[C@H]1CN(C)C(=O)Nc1ccccc1	inconclusive: 33.5%
CC(C)C(=O)Nc1ccc2c(c1)C(=O)N(C)[C@@H]1CC[C@H](CC(=O)N[C@@H](C)c3ccccc3)O[C@H]1CO2	inactive: 0.806%
CC(=O)N(C)C[C@H]1Oc2cc(C#CC3(O)CCCC3)ccc2S(=O)(=O)N([C@@H](C)CO)C[C@H]1C	inactive: -5.12%
CC1=C(C)CC(C(=O)Nc2nc(-c3ccc(F)cc3)c(C)s2)C(C(=O)O)C1 (stereo not drawn)	inconclusive: 29%
Cc1ccc(S(=O)(=O)N[C@H]2CC[C@H](CCn3cc(-c4cccnc4)nn3)O[C@@H]2CO)cc1	inactive: 4.88%
Cc1ccc(NCc2ccncc2)c(Br)c1	inconclusive: 60.1%
CC(=O)c1cccc(-c2ccnc3c2CC(C(=O)Nc2cccc(NS(C)(=O)=O)c2)O3)c1 (stereo not drawn)	inconclusive: 38.9%
Cc1cc(C)cc(C(=O)NCC(=O)OCC(=O)NCC(F)(F)F)c1	inconclusive: 26.6%
O=C(Nc1nc(-c2ccco2)c(-c2ccco2)s1)c1cnccn1	inconclusive: 32.3%
Cc1c(C(=O)Nc2ccc(C(=O)Nc3ccccc3)cc2)cccc1[N+](=O)[O-]	active: 25.9%
C[C@H](CO)N1C[C@H](C)[C@H](CN(C)C(=O)Nc2ccc(C(F)(F)F)cc2)OCCCC[C@H](C)Oc2ccc(NS(=O)(=O)c3ccccc3)cc2C1=O	active: 40.5%
COC(=O)c1sc(NC(=O)c2c(-c3ccccc3)noc2C)nc1C	inconclusive: 22.7%
CCOC(=O)[C@]12CCC=C1N(Cc1cccc3ccccc13)C(=O)[C@H](CC(=O)N1CCCCC1)C2	inconclusive: 36.1%
CC(=O)Oc1ccc(C2=Cc3ccc(OC(C)=O)cc3OC2C)cc1 (stereo not drawn)	inactive: -2.74%
Cc1ccc(S(=O)(=O)N(C)C[C@H]2OCCCC[C@H](C)Oc3ccc(NS(=O)(=O)c4c(C)noc4C)cc3C(=O)N([C@@H](C)CO)C[C@@H]2C)cc1	active: 42.8%
CCCC#Cc1ccc([C@H]2[C@H](CO)N3CCCCN(CC4CCOCC4)C[C@@H]23)cc1	active: 55.6%

SMILES	CPE inhibition
CCOc1ccc(/C=N/NC(=O)C2CC2)c(OCC)c1	inactive: -4.87%
C#Cc1ccc(CN2CCN(CCc3ccccc3)C(CCO)C2)cc1 (stereo not drawn)	inconclusive: 22.4%
COc1cccc(NC(=O)CN(C)C(=O)CCCNC(=O)c2ccc(Cl)cc2)c1	inconclusive: 45%
Cc1ccccc1-c1ccc(C2[C@@H]3CN(C(=O)C4CCCCC4)C[C@H]2N3)cc1 (stereo partly drawn)	inconclusive: 27.1%
c1ccc(-c2ccc3nncn3c2)cc1	inactive: -5.38%
O=C(Cn1ccccc1=O)Nc1ccc(Cl)c(S(=O)(=O)N2CCCCC2)c1	inconclusive: 22.9%
C[C@@H]1CN([C@@H](C)CO)C(=O)c2cccc(NC(=O)Nc3ccccc3)c2O[C@@H]1CN(C)CC1CCCCC1	active: 35.9%
CC(=O)OCO/N=[N+](\[O-])N1CCCC1	active: 24.2%
COCC(=O)N1[C@H](CO)[C@@H](c2ccc(-c3ccccc3)cc2)C12CN(C(C)=O)C2	inactive: -1.3%
COc1ccc(CN(C)C[C@H]2OCCCC[C@H](C)Oc3ccc(NS(=O)(=O)c4cccs4)cc3C(=O)N([C@H](C)CO)C[C@H]2C)cc1	active: 52.3%
C[C@H]1CN([C@@H](C)CO)C(=O)c2cc(/C=C/c3ccccc3)cnc2O[C@@H]1CN(C)C(=O)c1ccc(F)cc1	inactive: -7.53%
CCOc1ccccc1OCC(=O)NC1CCSc2ccccc21 (stereo not drawn)	inconclusive: 31.7%
CC(C)NC(=O)Nc1ccc2c(c1)C(=O)N([C@H](C)CO)C[C@@H](C)[C@H](CN(C)Cc1ccccc1)OCCCC[C@@H](C)O2	inconclusive: 67.4%
CNC(=O)Oc1ccc2c(c1)[C@]1(C)CCN(C)C1N2C (stereo partly drawn)	inactive: -3.84%
CCC(=O)N1[C@H](CN(C)C(C)=O)[C@H](c2ccc(-c3cccnc3)cc2)[C@@H]1CO	active: 29.2%
C[C@H]1CN([C@@H](C)CO)C(=O)c2cc(-c3cccc(F)c3)cnc2O[C@H]1CN(C)C(=O)C1CCC1	inconclusive: 39.3%
Cn1c(=O)cc(OCCCC(=O)Nc2cccc(Cl)c2)c2ccccc21	inconclusive: 43.5%
CCOc1ccc(-n2nnnc2SCC(=O)Nc2cccc(O)c2)cc1	inactive: -0.216%
N/C(Cc1ccccc1Sc1ccccc1)=N\O	inconclusive: 36.1%
C[C@H]1CN([C@@H](C)CO)S(=O)(=O)c2ccc(C#CC3CC3)cc2O[C@H]1CN(C)C(=O)CN(C)C	inactive: -6.18%
COc1cccc(C2=Cc3ccc(F)cc3C(CC(C)=O)N2c2ccc(-c3cncnc3)cc2)c1 (stereo not drawn)	inconclusive: 29.9%
COc1cc(C(=O)OCC(=O)N2CCCCC2C)cc(NC(=O)c2cccs2)c1OC (stereo not drawn)	inconclusive: 20.9%
CCO[C@@H]1OC(C(=O)N2CCN(C)CC2)=C[C@H](c2ccc(C(F)(F)F)cc2)[C@H]1CCCO	inconclusive: 21%
Cc1cc(=O)oc2c3c(cc(OCC(=O)NC(Cc4ccc(Cl)cc4)C(=O)O)c12)OC(C)(C)CC3 (stereo not drawn)	inconclusive: 62%
